Assay results reported in the supplement of paper PMC11006884.
The targets with a hit were mostly taken out for another list; the other results follow. This is a noisy data set. The entries are a selection whose mix differs from that of the whole data set.

The chains behind the UniProt entries cited, without tags or fusion partners. Where a name states a change or a piece, a line headed by the entry shows the natural chain unless it says otherwise.
UniProt Q5UIP0: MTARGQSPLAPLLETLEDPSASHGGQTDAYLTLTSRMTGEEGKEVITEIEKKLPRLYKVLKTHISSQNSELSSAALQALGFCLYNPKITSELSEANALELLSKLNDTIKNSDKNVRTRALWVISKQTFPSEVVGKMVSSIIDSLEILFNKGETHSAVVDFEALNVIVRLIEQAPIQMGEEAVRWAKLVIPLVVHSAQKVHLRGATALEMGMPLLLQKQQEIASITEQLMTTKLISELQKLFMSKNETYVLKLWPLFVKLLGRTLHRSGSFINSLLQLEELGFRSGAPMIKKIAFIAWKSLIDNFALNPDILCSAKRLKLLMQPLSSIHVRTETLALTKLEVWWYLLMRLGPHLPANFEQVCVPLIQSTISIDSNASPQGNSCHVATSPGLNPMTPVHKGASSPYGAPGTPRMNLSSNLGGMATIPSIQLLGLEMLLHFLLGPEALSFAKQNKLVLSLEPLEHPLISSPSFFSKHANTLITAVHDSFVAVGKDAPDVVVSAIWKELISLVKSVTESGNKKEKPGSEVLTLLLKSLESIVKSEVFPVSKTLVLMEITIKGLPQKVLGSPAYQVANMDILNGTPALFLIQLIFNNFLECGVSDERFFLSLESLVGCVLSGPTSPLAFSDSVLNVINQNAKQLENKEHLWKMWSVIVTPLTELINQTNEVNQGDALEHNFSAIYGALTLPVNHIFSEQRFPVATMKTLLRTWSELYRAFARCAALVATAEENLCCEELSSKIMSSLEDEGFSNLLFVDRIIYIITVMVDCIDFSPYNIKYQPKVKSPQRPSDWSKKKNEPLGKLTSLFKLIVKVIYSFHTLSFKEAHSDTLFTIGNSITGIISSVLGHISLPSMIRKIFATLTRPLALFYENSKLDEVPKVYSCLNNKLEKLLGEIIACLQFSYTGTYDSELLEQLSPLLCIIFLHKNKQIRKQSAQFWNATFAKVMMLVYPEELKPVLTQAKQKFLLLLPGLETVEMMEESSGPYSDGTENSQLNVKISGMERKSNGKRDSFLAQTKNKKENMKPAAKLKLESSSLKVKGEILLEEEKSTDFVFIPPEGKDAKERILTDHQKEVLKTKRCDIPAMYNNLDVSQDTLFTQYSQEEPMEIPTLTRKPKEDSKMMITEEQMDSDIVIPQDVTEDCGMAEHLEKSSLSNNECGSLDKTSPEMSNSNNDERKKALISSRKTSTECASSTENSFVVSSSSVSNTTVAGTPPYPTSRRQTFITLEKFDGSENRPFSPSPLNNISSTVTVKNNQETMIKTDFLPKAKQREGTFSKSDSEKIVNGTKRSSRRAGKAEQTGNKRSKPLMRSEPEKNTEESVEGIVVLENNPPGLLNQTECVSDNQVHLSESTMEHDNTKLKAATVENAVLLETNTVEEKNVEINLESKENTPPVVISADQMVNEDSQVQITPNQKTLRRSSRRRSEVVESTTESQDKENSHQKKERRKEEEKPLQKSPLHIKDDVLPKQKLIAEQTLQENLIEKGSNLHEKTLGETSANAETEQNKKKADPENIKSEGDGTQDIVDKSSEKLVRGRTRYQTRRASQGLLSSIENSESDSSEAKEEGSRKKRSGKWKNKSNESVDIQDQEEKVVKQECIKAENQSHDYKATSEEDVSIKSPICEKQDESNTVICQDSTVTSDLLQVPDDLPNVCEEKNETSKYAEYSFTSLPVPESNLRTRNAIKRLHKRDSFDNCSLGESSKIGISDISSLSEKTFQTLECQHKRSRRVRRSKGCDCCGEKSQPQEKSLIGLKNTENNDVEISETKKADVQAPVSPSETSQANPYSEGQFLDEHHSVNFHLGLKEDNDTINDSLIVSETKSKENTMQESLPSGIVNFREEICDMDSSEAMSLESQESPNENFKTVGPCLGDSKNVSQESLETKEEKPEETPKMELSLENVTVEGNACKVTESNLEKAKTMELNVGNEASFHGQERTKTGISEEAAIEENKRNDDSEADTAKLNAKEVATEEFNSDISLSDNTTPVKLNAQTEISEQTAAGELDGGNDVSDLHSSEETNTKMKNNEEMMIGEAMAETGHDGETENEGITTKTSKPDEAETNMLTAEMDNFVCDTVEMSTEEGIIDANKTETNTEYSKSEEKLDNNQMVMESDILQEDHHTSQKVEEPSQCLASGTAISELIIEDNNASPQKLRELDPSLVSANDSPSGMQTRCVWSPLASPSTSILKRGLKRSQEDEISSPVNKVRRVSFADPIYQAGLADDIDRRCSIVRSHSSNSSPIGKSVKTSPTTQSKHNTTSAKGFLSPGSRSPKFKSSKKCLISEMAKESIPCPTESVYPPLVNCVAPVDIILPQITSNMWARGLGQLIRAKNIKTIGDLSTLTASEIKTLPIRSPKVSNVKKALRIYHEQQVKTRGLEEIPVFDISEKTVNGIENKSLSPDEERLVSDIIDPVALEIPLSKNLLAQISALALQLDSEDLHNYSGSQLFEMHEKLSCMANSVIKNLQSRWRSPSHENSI
UniProt Q5JRX3: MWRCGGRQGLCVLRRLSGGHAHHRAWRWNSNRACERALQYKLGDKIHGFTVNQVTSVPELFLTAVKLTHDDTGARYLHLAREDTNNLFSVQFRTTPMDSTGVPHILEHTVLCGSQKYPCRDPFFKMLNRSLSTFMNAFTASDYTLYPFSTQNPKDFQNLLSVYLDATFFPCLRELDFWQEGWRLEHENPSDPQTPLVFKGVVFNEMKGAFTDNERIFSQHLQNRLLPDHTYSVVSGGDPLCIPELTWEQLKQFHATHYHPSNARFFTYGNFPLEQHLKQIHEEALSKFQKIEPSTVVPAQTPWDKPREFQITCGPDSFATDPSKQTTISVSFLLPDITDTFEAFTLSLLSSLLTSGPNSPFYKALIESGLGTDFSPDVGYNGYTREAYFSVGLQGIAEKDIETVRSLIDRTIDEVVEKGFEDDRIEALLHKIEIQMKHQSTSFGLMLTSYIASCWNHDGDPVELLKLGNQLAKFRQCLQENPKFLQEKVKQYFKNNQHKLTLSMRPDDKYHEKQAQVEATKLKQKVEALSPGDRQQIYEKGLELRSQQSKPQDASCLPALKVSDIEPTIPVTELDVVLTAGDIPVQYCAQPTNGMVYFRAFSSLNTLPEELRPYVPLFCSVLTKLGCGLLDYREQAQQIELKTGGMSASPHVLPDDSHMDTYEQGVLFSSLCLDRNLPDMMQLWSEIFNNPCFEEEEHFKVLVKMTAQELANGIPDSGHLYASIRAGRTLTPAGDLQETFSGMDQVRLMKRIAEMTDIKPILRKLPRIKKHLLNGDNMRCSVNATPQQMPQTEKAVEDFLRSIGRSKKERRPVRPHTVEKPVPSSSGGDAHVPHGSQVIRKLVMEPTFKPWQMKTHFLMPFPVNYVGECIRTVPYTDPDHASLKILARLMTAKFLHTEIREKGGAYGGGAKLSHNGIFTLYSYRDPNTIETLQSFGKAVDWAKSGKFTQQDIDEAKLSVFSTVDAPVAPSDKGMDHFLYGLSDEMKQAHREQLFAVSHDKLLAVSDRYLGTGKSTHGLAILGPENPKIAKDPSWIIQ
UniProt Q6KC79: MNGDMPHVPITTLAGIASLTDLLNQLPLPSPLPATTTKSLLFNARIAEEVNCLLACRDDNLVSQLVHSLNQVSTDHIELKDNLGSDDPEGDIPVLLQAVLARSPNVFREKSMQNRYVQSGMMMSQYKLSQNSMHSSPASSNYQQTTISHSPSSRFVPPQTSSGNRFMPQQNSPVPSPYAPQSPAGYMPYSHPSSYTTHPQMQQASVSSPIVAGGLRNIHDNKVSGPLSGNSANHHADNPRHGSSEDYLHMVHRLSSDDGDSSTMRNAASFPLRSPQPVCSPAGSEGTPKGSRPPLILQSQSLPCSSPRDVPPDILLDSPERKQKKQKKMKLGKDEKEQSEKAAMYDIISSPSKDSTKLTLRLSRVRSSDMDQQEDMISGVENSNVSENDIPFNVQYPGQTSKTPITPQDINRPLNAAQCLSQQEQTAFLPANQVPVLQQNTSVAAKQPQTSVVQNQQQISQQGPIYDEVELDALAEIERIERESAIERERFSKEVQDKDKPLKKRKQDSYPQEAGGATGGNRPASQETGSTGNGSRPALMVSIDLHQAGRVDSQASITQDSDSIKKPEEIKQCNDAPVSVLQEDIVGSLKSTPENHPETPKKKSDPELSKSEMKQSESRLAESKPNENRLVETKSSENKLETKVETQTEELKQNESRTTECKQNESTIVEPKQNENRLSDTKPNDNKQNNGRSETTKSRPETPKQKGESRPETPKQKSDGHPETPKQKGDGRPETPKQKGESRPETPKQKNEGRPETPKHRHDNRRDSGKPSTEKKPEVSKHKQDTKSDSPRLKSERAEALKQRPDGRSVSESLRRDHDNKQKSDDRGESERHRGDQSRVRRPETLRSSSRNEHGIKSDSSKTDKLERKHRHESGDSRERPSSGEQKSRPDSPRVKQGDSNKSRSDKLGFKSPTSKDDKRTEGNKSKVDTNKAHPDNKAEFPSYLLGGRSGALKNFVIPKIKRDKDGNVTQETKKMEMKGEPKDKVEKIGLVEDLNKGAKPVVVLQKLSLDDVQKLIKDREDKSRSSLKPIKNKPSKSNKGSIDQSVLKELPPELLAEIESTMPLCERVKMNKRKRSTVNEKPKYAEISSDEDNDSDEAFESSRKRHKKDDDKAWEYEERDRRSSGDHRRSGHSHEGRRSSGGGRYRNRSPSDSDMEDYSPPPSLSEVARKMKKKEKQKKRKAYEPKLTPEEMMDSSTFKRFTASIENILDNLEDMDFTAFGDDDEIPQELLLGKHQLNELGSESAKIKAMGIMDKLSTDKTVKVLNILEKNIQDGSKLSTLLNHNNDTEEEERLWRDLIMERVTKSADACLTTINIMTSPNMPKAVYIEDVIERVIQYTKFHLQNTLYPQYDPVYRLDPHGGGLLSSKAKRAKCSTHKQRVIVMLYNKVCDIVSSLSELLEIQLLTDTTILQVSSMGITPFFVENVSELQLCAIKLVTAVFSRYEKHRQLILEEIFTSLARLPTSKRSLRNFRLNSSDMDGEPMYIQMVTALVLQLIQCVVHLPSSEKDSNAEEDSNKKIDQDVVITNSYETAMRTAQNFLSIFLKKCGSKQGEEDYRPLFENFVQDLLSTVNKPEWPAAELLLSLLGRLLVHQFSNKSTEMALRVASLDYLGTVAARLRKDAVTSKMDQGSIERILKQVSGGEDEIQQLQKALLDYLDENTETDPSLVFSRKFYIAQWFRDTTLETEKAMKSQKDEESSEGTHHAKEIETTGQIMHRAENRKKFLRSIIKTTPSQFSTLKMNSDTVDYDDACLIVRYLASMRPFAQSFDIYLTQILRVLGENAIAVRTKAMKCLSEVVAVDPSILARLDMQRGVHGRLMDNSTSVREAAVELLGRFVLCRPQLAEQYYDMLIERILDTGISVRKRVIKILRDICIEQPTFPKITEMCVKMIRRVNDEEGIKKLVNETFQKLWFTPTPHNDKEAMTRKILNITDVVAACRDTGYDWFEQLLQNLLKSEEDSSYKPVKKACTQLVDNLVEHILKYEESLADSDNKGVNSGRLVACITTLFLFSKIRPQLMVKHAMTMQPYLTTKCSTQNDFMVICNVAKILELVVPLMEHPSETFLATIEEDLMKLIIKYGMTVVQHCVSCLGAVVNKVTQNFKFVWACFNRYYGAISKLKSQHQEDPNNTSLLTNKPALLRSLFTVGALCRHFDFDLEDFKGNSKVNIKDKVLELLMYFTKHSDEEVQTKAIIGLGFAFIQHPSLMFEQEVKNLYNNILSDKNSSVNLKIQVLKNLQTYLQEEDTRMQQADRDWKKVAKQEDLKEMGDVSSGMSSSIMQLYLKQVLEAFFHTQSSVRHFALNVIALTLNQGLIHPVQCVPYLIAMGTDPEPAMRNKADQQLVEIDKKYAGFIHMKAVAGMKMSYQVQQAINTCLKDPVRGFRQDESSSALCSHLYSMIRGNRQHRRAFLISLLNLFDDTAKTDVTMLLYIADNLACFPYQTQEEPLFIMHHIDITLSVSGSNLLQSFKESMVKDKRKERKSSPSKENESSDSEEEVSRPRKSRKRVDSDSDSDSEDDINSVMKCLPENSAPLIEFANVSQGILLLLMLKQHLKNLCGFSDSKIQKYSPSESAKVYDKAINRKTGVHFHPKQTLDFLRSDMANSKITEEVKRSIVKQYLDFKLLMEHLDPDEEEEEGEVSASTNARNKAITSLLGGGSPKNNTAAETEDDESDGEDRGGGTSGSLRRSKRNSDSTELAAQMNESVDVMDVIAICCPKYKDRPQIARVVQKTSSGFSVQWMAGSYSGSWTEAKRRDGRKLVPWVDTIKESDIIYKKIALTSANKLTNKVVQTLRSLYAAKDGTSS

compound: COC(=O)/C=C/c1ccccc1 [methyl cinnamate]; assay: log2 ratio of iodoacetamide-alkyne labeling of the cysteine site, DMSO over compound (competition); higher = stronger covalent engagement of the cysteine by the compound, active = 1 or more; conditions: 500 µM; treatment time 1 h; system: HEK293T cell lysate
Outline: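 Electrophile (500 µM) or vehicle was added to HEK293T lysate (2 mg/mL) for 1 h at ambient temperature before iodoacetamide alkyne labelling (1 h) and click coupling to sCIP-TMT reagents. After pooling, overnight trypsin digestion at 37 °C, streptavidin enrichment and acid elution, peptides were measured by Orbitrap Eclipse LC-MS/MS with FAIMS and quantified in FragPipe. Each cysteine's log2 competition ratio compares mean control-channel with mean compound-channel reporter intensity, control over compound. Data came from duplicate channels across three replicates, excluding cysteines quantified in only one replicate.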

log2 ratio of iodoacetamide-alkyne labeling, inactive:
NUP188 C9 (UniProt Q5SRE5) 0.283, MTHFD1L C302 (UniProt Q6UB35) 0.21, PGM2L1 C303 (UniProt Q6PCE3) 0.238, LARP1 C1054 (UniProt Q6PKG0) 0.484, TTC37 C1280 (UniProt Q6PGP7) 0.25, MBOAT2 C505 (UniProt Q6ZWT7) 0.345, WDR73 C375 (UniProt Q6P4I2) 0.0728, RIF1 C1865 (UniProt Q5UIP0) -0.0677, PITRM1 C780 (UniProt Q5JRX3) 0.117, UniProt Q6ZNW5_C64 0.0814, ZNF326 C12 (UniProt Q5BKZ1) 0.172, ARMC6 C297 (UniProt Q6NXE6) 0.179, TOR1AIP1 C424 (UniProt Q5JTV8) 0.125, NIPBL C419 (UniProt Q6KC79) 0.488, LARP1 C502 (UniProt Q6PKG0) 0.00405, UniProt Q5VSL9_C418 0.181, AARS2 C596 (UniProt Q5JTZ9) -0.0626, INTS5 C58 (UniProt Q6P9B9) 0.0484, DNAJC21 C444 (UniProt Q5F1R6) 0.0402, CEP170 C1049 (UniProt Q5SW79) -0.0584, CAMSAP1 C848 (UniProt Q5T5Y3) 0.198
